Experimental data as given in PubChem BioAssay AID493014 (National Center for Advancing Translational Sciences (NCATS), 2011).
Some of the results follow. These are further read-outs of the screen, such as a control signal, another cell line or another target. No call is given for them. The list favours compounds with an active or inconclusive main result. Potencies come from curve fits of mixed quality, noted in brackets.

Assay: qHTS Assay to Find Inhibitors of Chronic Active B-Cell Receptor Signaling
Conditions: ABC-DLBCL IkBa-CBG/CBR reporter, luminescence ratio (green luciferase fused to IkBa over red control in TMD8 lymphoma cells), 4 h
In short: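 Doxycycline induced both beetle luciferases in TMD8 lymphoma cells; IKK-driven degradation limits the IkappaBalpha-fused green signal, while red luminescence normalises for cell number and nonspecific effects. Compounds tested up to 46 uM, 4 hrs.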

[1] = measured here: CBR red luminescence, cell number
[2] = measured here: IkBa-CBG green luminescence

SMILES | AC50 [1] | AC50 [2]
O=C(NCCC(=O)N1CCN(c2ncccn2)CC1)c1ccccc1 | 16.4 µM [falling, single point] | 25.9 µM [rising, partial curve, poor fit]
COc1cc(/C=N/Nc2nc(N3CCCC3)nc(N3CCCC3)n2)ccc1O | 29.1 µM [falling, single point] | 
COCc1ccc(CN2CCC(C(=O)Nc3cccc(-c4cccc(Cl)c4)c3)CC2)o1 | 11.2 µM [falling, partial curve] | 
COc1ccc(CCNc2ncnc3cc(OC)c(OC)cc23)cc1OC | 10 µM [falling, single point] | 
COc1ccccc1C(=O)C1CCCN(Cc2cn[nH]c2C2CCCCC2)C1 (centres undefined) | 20 µM [falling, single point] | 
COc1cccc(NC(=O)CN(C)C(=O)CC(C)c2ccccc2)c1 (centres undefined) | 2.51 µM [falling, partial curve, poor fit] | 
O=C(c1ccco1)N1CCN(C(=O)c2cnn3c(C(F)(F)F)cc(-c4cccs4)nc23)CC1 | 2.06 µM [rising, full curve, poor fit] | 
COc1ccc(N/C(=N\c2nc(C)cc(C)n2)NC(=O)C(C)C)cc1OC | 5.01 µM [rising, full curve, poor fit] | 
O=C(COC(=O)c1cc(Cl)ccc1Cl)NC1CCCC1 | 3.55 µM [rising, full curve, poor fit] | 
CCOC(=O)c1cnc(-n2nc(C)cc2C)nc1Oc1ccccc1F | 1.78 µM [rising, full curve, poor fit] | 
Cc1ccc(NC(=O)COc2ccc3oc4c(c3c2)CCCC4)nc1 | 32.6 µM [rising, single point] | 
CCOC(=O)CSC1=C(C#N)C(c2ccc(C)s2)CC(=O)N1 (centres undefined) | 6.31 µM [rising, partial curve, poor fit] | 15.8 µM [falling, partial curve]
CCOC(=O)C1CCCN(C(=O)c2cc3c(=O)n(C)c4ccccc4c3n2C)C1 (centres undefined) | 5.17 µM [falling, single point] | 
O=C1CC(N2CCOCC2)C(=O)N1CCc1ccccc1 (centres undefined) | 31.6 µM [rising, single point] | 
COc1cc(S(=O)(=O)NCC2OCCc3ccccc32)ccc1-n1cnnn1 (centres undefined) | 29.1 µM [falling, single point] | 
O=C(Nc1ccc(N2CCOCC2)nc1N1CCOCC1)c1cccc(C(F)(F)F)c1 | 14.1 µM [falling, partial curve, poor fit] | 
Cc1ccc(OCc2ccc(C(=O)N3CCCC3)o2)cc1C | 25.1 µM [falling, single point] | 

3 entries out of the list, ordered by length of the SMILES, rising:
SMILES | AC50 [1] | AC50 [2]
Cc1ccc(NC(=O)COc2ccc3oc4c(c3c2)CCCC4)nc1 | 32.6 µM [rising, single point] | 
O=C(Nc1ccc(N2CCOCC2)nc1N1CCOCC1)c1cccc(C(F)(F)F)c1 | 14.1 µM [falling, partial curve, poor fit] | 
O=C(c1ccco1)N1CCN(C(=O)c2cnn3c(C(F)(F)F)cc(-c4cccs4)nc23)CC1 | 2.06 µM [rising, full curve, poor fit] | 
